Measurements: patent US20190125715A1, “CDDO-Me AS A THERAPY FOR LUPUS” (priority 2014, published 2019)
For at least one compound, name, drawing or mass did not settle the structure.

How the values were obtained:
MRL/lpr mice = test: Confirmatory preventive study in the MRL/lpr mouse model of lupus; type: in vivo; conditions: for splenomegaly (spleen weight): oral, 3 times a week for 2 months, CDDO-Me 3 mg/kg, dexamethasone 1 mg/kg, vs sesame oil/water
[1] = test system: MEK, ERK-1/2, Nrf2 in splenic B cells and T cells; test: Western blot of signaling status in splenic B cells and T cells of treated MRL/lpr mice; type: in vivo, mouse; conditions: MRL/lpr mice after treatment
B6.Sle1.Sle3 mice [2] = test: ELISA for serum IgG autoantibodies in B6.Sle1.Sle3 mice; type: in vivo, mouse; conditions: after 60 days of treatment
[3] = test system: NF-E2-related factor 2 (Nrf2) signaling pathway in the kidneys; test: Western blot analysis of the Nrf2 signaling pathway in kidneys of treated B6.Sle1.Sle3 mice; type: in vivo, mouse; conditions: B6.Sle1.Sle3 mice after treatment
[4] = test system: ERK-1/2, MEK-1/2, STAT-3, AKT, NF-κB in splenic CD4+ T cells; test: Western blot analysis of signaling in purified splenic CD4+ T cells from treated B6.Sle1.Sle3 mice; type: in vivo, mouse; conditions: end of 60-day treatment
B6.Sle1.Sle3 mice [5] = test: Renal disease (24-hour proteinuria, GN score, BUN) in B6.Sle1.Sle3 mice; type: in vivo, mouse; conditions: day 60, B6.Sle1.Sle3 mice
[6] = test system: cellular ROS in splenocytes of MRL/lpr mice; test: Cellular reactive oxygen species (ROS) detection (DCFDA, flow cytometry) in splenocytes of treated MRL/lpr mice; type: in vivo, mouse
B6.Sle1.Sle3 mice [7] = test: Preventive experiment in B6.Sle1.Sle3 mice: spleen weight, splenic cellularity and lymphocyte subsets by flow cytometry; type: in vivo, mouse
Description: Flow cytometric analysis and antibodies: Splenocytes were depleted of red blood cells using a lysis buffer (containing 0.15M NH4Cl, 10 mM KHCO3, and 0.1 mM Na2EDTA, pH 7.2), and single-cell suspensions were prepared for flow cytometric analysis. Flow cytometric analysis was performed as described previously (17).
In vivo experiments: In the first preventive experiment, CDDO-Me was diluted in sesame oil. Two-month-old B6.Sle1.Sle3 mice (n=20) received CDDO-Me at a final dose of 3 mg/kg or vehicle alone (i.e., placebo), by oral gavage 3 times per week for a period of 2 months. In a confirmatory preventive study, 2-month-old MRL/lpr mice (n=8 per group) were orally administered CDDO-Me (3 mg/kg), sesame oil, water, or dexamethasone (1 mg/kg) 3 times a week for 2 months. Serum and 24-hour urine samples were obtained on days 0, 14, and 60. All serum samples were subjected to ELISA for autoantibodies, and urine samples were assayed for total protein as previously described (17,18). On day 60, when mice were killed, the cellular composition of the spleen and lymph nodes was determined by flow cytometry, and the kidneys were examined for pathology, as described below. In addition, the expression of various signaling molecules in the spleens and kidneys of the treated mice was assayed by Western blotting, as described above. In the treatment experiment, 7-month-old NZM2410 mice with proteinuria (n=4-7 per group) were treated with CDDO-Me (3 mg/kg) or placebo by oral gavage 5 times per week for a period of 2 months. Proteinuria, autoantibody production, spleen weight, and survival rates were assessed.
To address this, 2-month-old female B6.Sle1.Sle3 mice were treated for 60 days with CDDO-Me or placebo, and then spleen size and cellularity were assessed in both groups.

[8] = test system: MEK-1/2, NF-κB, STAT-3, Akt in splenic B cells; test: Western blot analysis of signaling in purified splenic B220+ B cells from treated B6.Sle1.Sle3 mice; type: in vivo, mouse; conditions: end of 60-day treatment
NZM2410 mice = test: Treatment experiment after disease onset in NZM2410 mice with proteinuria; type: in vivo, mouse; conditions: 7-month-old NZM2410 mice with proteinuria, 3 mg/kg oral gavage 5 times per week, 2 months
[9] = did not reach statistical significance
[10] = compared to the other groups, including dexamethasone-treated mice
[11] = 3 mg/kg oral 3 times a week for 2 months

C[C@@H]1C[C@H]2[C@@H]3CCC4=CC(=O)C=C[C@]4(C)[C@@]3(F)[C@@H](O)C[C@]2(C)[C@@]1(O)C(=O)CO [dexamethasone]
overall disease outcome after treatment (MRL/lpr mice; dexamethasone 1 mg/kg oral 3 times a week for 2 months, comparable to CDDO-Me): disease improvement | splenomegaly (spleen weight) (MRL/lpr mice): Significantly reduced

COC(=O)[C@]12CCC(C)(C)C[C@H]1[C@H]1C(=O)C=C3[C@@]4(C)C=C(C#N)C(=O)C(C)(C)[C@@H]4CC[C@@]3(C)[C@]1(C)CC2 [CDDO-Me, methyl-2-cyano-3,12-dioxooleana-1,9-dien-28-oate]
Nrf2 in splenic B cells and T cells [1]: up-regulated | phosphorylation of ERK-1/2 in splenic B cells and T cells [1]: down-regulated | phosphorylation of MEK in splenic B cells and T cells [1]: down-regulated | serum level of IgG anti-dsDNA antibodies compared to placebo (B6.Sle1.Sle3 mice [2]): significantly decreased | serum level of IgG anti-single-stranded DNA (anti-ssDNA) antibodies compared to placebo (B6.Sle1.Sle3 mice [2]): significantly decreased | serum level of IgG antiglomerular antibodies compared to placebo (B6.Sle1.Sle3 mice [2]): significantly decreased | serum level of IgG antihistone antibodies compared to placebo (B6.Sle1.Sle3 mice [2]): significantly decreased | GCLC expression in the mouse kidneys [3]: trend toward enhanced expression | NQO-1 in the mouse kidneys [3]: significantly increased | Nrf2 in the mouse kidneys [3]: significantly increased | activation/phosphorylation of ERK-1/2 in CD4+ T cells [4]: significantly ameliorated | activation/phosphorylation of MEK-1/2 in CD4+ T cells [4]: significantly ameliorated | activation/phosphorylation of STAT-3 in CD4+ T cells [4]: significantly ameliorated | AKT phosphorylation in CD4+ T cells [4, 9]: trend toward reduced phosphorylation | NF-κB phosphorylation in CD4+ T cells [4, 9]: trend toward reduced phosphorylation | BUN levels (B6.Sle1.Sle3 mice [5]): reduced BUN levels | GN scores compared to placebo treatment (B6.Sle1.Sle3 mice [5]): lower GN scores | proteinuria compared to the placebo-treated group (B6.Sle1.Sle3 mice [5]): significantly reduced | significant reduction in cellular ROS in B220+ B cells ([6]; 4-month-old MRL/lpr mice): not | ROS levels (percentage of DCFDA+ cells) among CD4+ T cells [6, 10]: significantly reduced | ROS levels (percentage of DCFDA+ cells) among CD11b+ cells [6, 10]: significantly reduced | GN score compared to the control groups (MRL/lpr mice; [11]): significant reduction | anti-dsDNA antibody levels compared to the control groups (MRL/lpr mice; [11]): significant reduction | proteinuria compared to the control groups (MRL/lpr mice; [11]): significant reduction | splenomegaly (spleen weight) (MRL/lpr mice): significantly reduced | absolute cell numbers of splenic B220+ B cells (mature and immature B cells, and B1a cells) (B6.Sle1.Sle3 mice [7]; 60 days treatment): decreased | activated population (CD69+) within the CD4+ T cell compartment compared to the control group (B6.Sle1.Sle3 mice [7]; 60 days treatment): significantly deceased | total number of splenocytes compared to the placebo-treated group (B6.Sle1.Sle3 mice [7]; female B6.Sle1.Sle3 mice treated for 60 days): decreased | MEK-1/2 activation in splenic B cells [8]: significantly dampened | activation of Akt in splenic B cells (diminished to a lesser extent) [8]: not statistically significant | activation of NF-κB in splenic B cells (appeared diminished) [8]: not statistically significant | activation of STAT-3 in splenic B cells (appeared diminished) [8]: not statistically significant | cellularity (NZM2410 mice): reducing | circulating antibodies (NZM2410 mice): reducing | proteinuria (NZM2410 mice): reducing
